Data published in article PMC6977694.
These are yes or no findings as the source states them, for the method shown. Binding seen in cells or lysates may run through a third protein. Some binding calls cover weakened binding; strength is not graded here.

T1: Peroxiredoxin 5 (PRDX5) (human (endogenous in NSCLC tissue, adjacent normal lung tissue, A549 and NCI-H1299)) (UniProt P30044)
T1 sequence: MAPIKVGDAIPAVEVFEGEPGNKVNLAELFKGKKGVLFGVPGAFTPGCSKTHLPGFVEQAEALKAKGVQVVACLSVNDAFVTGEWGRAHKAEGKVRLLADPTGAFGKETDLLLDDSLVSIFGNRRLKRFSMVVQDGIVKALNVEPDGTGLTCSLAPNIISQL

T2: Nuclear factor-related factor 2 (Nrf2) (human (endogenous in NSCLC tissue, adjacent normal lung tissue, A549 and NCI-H1299)) (UniProt Q16236)
T2 sequence: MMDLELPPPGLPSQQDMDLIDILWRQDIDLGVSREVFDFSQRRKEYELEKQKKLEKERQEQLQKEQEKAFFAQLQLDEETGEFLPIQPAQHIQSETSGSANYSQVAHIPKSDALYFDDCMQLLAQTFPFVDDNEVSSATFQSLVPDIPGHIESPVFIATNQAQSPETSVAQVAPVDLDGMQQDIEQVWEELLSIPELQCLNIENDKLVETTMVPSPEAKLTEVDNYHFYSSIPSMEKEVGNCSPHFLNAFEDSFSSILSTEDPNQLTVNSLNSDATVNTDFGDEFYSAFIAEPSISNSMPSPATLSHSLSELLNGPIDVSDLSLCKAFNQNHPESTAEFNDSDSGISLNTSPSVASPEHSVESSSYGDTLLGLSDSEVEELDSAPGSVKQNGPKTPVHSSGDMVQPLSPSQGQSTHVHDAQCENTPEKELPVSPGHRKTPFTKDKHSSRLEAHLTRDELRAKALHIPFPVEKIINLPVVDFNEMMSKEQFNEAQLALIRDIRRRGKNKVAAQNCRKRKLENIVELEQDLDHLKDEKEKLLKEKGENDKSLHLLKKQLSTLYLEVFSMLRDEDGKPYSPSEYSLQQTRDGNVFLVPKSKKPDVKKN


Assays:
[1] = molecular target: T1, Peroxiredoxin 5 (PRDX5) (human (endogenous in NSCLC tissue, adjacent normal lung tissue, A549 and NCI-H1299)); experiment: co-IP; supernatant of fresh human NSCLC tissue lysate incubated with anti-Nrf2, anti-PRDX5 or control IgG and Protein G Sepharose; Western blot; reciprocal
[2] = molecular target: T1, Peroxiredoxin 5 (PRDX5) (human (endogenous in NSCLC tissue, adjacent normal lung tissue, A549 and NCI-H1299)); experiment: co-IP; supernatant of adjacent normal (non-tumorous) lung tissue lysate incubated with primary antibody or control IgG and Protein G Sepharose; Western blot
[3] = molecular target: T2, Nuclear factor-related factor 2 (Nrf2) (human (endogenous in NSCLC tissue, adjacent normal lung tissue, A549 and NCI-H1299)); experiment: co-IP; supernatant of fresh human NSCLC tissue lysate incubated with anti-Nrf2, anti-PRDX5 or control IgG and Protein G Sepharose; Western blot; reciprocal
[4] = molecular target: T2, Nuclear factor-related factor 2 (Nrf2) (human (endogenous in NSCLC tissue, adjacent normal lung tissue, A549 and NCI-H1299)); experiment: co-IP; lysates of A549 and NCI-H1299 cells, treated with 100 uM H2O2 for 30 min or untreated, immunoprecipitated with anti-Nrf2, anti-PRDX5 or control IgG and Protein G Sepharose; Western blot

binding [1] | binding [2] | binding [3] | binding [4] | Binder
binds | binds | – | – | Nuclear factor-related factor 2 (Nrf2) (protein, UniProt Q16236 1-605) MMDLELPPPGLPSQQDMDLIDILWRQDIDLGVSREVFDFSQRRKEYELEKQKKLEKERQEQLQKEQEKAFFAQLQLDEETGEFLPIQPAQHIQSETSGSANYSQVAHIPKSDALYFDDCMQLLAQTFPFVDDNEVSSATFQSLVPDIPGHIESPVFIATNQAQSPETSVAQVAPVDLDGMQQDIEQVWEELLSIPELQCLNIENDKLVETTMVPSPEAKLTEVDNYHFYSSIPSMEKEVGNCSPHFLNAFEDSFSSILSTEDPNQLTVNSLNSDATVNTDFGDEFYSAFIAEPSISNSMPSPATLSHSLSELLNGPIDVSDLSLCKAFNQNHPESTAEFNDSDSGISLNTSPSVASPEHSVESSSYGDTLLGLSDSEVEELDSAPGSVKQNGPKTPVHSSGDMVQPLSPSQGQSTHVHDAQCENTPEKELPVSPGHRKTPFTKDKHSSRLEAHLTRDELRAKALHIPFPVEKIINLPVVDFNEMMSKEQFNEAQLALIRDIRRRGKNKVAAQNCRKRKLENIVELEQDLDHLKDEKEKLLKEKGENDKSLHLLKKQLSTLYLEVFSMLRDEDGKPYSPSEYSLQQTRDGNVFLVPKSKKPDVKKN
– | – | binds | binds | Peroxiredoxin 5 (PRDX5) (protein, UniProt P30044 53-214) MAPIKVGDAIPAVEVFEGEPGNKVNLAELFKGKKGVLFGVPGAFTPGCSKTHLPGFVEQAEALKAKGVQVVACLSVNDAFVTGEWGRAHKAEGKVRLLADPTGAFGKETDLLLDDSLVSIFGNRRLKRFSMVVQDGIVKALNVEPDGTGLTCSLAPNIISQL
